From paper PMC5606929
These are yes or no findings as the source states them, for the method shown. For part of these data: In cells and extracts the contact can be indirect. Some entries that bind do so weakly or less than the wild type. Sequences can lack the tags named with a protein.

T1: full-length human Aquaporin-2 (AQP2), C-terminal Cub-tagged MYTH bait (pTMBV-hAQP2-Cub) (human) (UniProt P41181)
T1 sequence: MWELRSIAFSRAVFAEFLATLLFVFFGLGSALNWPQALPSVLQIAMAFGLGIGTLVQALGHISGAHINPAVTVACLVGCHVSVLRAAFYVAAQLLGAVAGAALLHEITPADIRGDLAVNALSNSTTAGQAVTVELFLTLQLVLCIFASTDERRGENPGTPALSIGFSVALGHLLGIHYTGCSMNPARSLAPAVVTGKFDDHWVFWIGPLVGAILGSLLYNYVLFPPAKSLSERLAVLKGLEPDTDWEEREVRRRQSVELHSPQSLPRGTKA

T2: human Aquaporin-2 (AQP2) expressed from pCB6-dBamHI-AQP2 in HEK293 cells (human) (UniProt P41181)
T2 sequence: T1 sequence

B1: NEDD4 family interacting protein 2 (NDFIP2) clone from the MYTH screening, amino acids 203-336, NubG-tagged (domain or fragment, UniProt Q9NV92 203-336)
chain: ETSQRIQEEECPPRDDFSDADQLRVGNDGIFMLAFFMAFIFNWLGFCLSFCITNTIAGRYGAICGFGLSLIKWILIVRFSDYFTGYFNGQYWLWWIFLVLGLLLFFRGFVNYLKVRNMSESMAAAHRTRYFFLL
B2: myc-tagged wildtype mouse NDFIP2 (protein, UniProt Q91ZP6 1-311)
chain: RRSASDAELSAGAEGATGSEAAPPGDLGGRTRGGGRGSAAAAATTSTREAEGAERRGDTPARKPDPEAGRMDHHQLGTGRYQVLHNEEDNSESSAVEQPSTSSLAAPTVEAAASAPALDPDSPPPYSSITVEAPTTSDTDVYSEFYPVPPPYSVATSLPTYDEAEKAKAAALAAAAADAPQRNQEEDCTPRDDFSDVEQLRVGNDGIFMLAFFMAFIFNWLGFCLSFCITNTIAGRYGAICGFGLSLIKWILIVRFSDYFTGYFNGQYWLWWIFLVLGLLLFFRGFVNYLKVRNMSESMAAAHRTRYFFLL
B3: myc-tagged wildtype mouse NDFIP1 (protein, UniProt Q8R0W6 1-221)
chain: MALALAALAAVEPACGSGYQQLQNEEEPGEPEQTAGDAPPPYSSITAESAAYFDYKDESGFPKPPSYNVATTLPSYDEAERTKTEATIPLVPGRDEDFVGRDDFDDTDQLRIGNDGIFMLTFFMAFLFNWIGFFLSFCLTTSAAGRYGAISGFGLSLIKWILIVRFSTYFPGYFDGQYWLWWVFLVLGFLLFLRGFINYAKVRKMPETFSNLPRTRVLFIY

Experiments:
[1] = molecular target: T1, full-length human Aquaporin-2 (AQP2), C-terminal Cub-tagged MYTH bait (pTMBV-hAQP2-Cub) (human); assay: two-hybrid; Membrane Yeast Two-Hybrid (MYTH), S. cerevisiae NMY51 (HIS3/ADE2/LacZ); Cub-tagged bait, NubG-tagged prey; colony growth on interaction selective media (SD-WLAH) containing X-Gal; confirmed by back transformation
[2] = molecular target: T2, human Aquaporin-2 (AQP2) expressed from pCB6-dBamHI-AQP2 in HEK293 cells (human); assay: co-IP; HEK293 transiently co-expressing AQP2 and myc-NDFIP1 or myc-NDFIP2; 10 nM TPA 15 min before harvest; co-IP lysis buffer (100 mM NaCl, 25 mM Tris-HCl, 0.3% NP40, pH 7.5); IP with rabbit anti-AQP2 on Protein A/G-Agarose, overnight 4 C; immunoblot anti-myc

Row | Binder | binding [1] | binding [2]
1 | B1 | binds | 
2 | B2 |  | binds
3 | B3 |  | binds
